These are yes or no findings as the source states them, for the method shown. Binding seen in cells or lysates may run through a third protein. A result given as binding can be weak or reduced; the word gives no strength. Tags and fused reporters may be left off the sequences shown. Blank lines part the entries; values can stand above or below the molecule they belong to.
Columns and labels:
NHE2-GFP (human) = biological target: T1, NHE2-GFP (human) (UniProt Q9UBY0); assay: co-IP
T1 sequence: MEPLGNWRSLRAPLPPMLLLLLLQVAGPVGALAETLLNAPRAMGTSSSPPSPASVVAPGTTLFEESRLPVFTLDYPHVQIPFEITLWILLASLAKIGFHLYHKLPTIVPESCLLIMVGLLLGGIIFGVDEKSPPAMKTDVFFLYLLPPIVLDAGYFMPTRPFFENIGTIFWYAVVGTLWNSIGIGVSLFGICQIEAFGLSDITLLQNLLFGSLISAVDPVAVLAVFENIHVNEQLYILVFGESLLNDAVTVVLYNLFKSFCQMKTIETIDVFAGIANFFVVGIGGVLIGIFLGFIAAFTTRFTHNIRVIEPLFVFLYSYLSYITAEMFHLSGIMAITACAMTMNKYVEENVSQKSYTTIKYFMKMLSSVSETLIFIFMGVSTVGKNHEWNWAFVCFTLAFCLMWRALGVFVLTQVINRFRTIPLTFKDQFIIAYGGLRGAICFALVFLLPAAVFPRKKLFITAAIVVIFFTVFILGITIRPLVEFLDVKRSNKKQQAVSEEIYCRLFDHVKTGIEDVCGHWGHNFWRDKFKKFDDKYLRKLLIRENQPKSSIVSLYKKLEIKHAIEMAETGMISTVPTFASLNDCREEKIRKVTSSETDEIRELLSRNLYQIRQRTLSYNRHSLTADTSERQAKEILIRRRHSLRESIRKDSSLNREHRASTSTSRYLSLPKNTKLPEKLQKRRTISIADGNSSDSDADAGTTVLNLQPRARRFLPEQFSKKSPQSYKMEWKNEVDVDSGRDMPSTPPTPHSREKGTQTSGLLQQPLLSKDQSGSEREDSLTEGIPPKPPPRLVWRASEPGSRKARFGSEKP

cystinosin-DsRed (human) = assay: co-IP

binding (NHE2-GFP (human)): binds
Molecule: cystinosin-DsRed (human)

binding (cystinosin-DsRed (human)): binds
B1: NHE2-GFP (protein, UniProt Q9UBY0 1-812)
chain: T1 sequence
